# Screening data, single-dose tests

Chains of the proteins cited; added tags and fusions are not shown. Residues count along the entry.
UniProt I6X8D2, whole entry: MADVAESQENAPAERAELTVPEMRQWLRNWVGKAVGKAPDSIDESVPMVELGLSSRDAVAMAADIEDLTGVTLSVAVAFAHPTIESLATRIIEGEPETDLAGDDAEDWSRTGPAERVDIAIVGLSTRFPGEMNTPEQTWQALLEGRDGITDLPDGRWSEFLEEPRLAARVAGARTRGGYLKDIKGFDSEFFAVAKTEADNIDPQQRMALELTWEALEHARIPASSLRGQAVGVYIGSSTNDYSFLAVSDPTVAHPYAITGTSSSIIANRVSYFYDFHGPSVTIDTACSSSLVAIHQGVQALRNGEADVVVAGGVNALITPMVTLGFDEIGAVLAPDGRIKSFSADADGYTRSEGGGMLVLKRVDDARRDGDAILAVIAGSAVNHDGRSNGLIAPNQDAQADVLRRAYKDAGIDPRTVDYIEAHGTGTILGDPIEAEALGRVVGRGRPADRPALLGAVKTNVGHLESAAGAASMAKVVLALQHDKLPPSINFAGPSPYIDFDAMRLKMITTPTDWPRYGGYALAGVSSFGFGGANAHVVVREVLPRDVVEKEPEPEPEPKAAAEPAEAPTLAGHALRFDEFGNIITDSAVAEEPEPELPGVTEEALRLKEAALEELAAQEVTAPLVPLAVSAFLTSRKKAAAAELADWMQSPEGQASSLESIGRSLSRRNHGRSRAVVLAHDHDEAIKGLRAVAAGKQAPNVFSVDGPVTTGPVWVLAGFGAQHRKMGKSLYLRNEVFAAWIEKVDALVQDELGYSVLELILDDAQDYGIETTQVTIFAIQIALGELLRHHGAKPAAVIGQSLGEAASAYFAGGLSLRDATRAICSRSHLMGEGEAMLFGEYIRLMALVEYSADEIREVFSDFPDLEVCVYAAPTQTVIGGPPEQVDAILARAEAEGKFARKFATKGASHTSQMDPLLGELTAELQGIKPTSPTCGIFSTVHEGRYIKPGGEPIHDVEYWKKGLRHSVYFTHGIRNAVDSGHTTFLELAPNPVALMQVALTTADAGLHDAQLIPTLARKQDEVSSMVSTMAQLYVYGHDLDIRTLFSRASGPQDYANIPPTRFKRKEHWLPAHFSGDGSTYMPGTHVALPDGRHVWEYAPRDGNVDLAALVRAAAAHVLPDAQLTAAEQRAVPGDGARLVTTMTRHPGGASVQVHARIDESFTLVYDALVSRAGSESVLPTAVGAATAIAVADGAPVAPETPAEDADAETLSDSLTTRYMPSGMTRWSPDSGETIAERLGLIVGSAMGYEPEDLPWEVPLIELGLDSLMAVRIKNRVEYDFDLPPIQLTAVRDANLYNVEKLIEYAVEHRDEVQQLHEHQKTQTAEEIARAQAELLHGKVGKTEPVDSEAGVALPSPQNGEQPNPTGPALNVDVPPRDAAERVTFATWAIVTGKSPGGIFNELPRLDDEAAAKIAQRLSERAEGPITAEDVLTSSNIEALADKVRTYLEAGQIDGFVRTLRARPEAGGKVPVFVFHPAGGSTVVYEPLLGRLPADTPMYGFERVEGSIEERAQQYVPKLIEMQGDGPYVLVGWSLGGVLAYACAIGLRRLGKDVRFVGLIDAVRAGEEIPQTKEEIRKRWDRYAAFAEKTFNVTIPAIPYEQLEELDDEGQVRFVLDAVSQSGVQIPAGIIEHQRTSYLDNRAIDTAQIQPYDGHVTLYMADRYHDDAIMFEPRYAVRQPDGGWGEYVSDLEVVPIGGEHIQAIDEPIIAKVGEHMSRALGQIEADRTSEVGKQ
UniProt Q8IDJ8, 1-583: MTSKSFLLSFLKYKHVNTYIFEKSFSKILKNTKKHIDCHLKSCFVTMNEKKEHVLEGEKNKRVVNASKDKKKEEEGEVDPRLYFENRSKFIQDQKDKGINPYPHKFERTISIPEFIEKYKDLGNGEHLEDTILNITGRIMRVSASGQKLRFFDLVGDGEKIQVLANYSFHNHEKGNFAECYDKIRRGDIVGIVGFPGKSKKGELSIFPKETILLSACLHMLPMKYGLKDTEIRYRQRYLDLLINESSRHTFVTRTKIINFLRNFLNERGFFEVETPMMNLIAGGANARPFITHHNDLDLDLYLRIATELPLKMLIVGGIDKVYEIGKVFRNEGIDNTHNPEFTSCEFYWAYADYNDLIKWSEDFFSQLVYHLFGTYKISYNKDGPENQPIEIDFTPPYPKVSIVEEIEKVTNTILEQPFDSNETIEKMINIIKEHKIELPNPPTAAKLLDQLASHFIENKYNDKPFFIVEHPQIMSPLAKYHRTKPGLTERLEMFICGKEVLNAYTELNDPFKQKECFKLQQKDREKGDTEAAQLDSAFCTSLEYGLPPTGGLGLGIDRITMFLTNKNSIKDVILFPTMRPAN
UniProt A4I591, 1-473: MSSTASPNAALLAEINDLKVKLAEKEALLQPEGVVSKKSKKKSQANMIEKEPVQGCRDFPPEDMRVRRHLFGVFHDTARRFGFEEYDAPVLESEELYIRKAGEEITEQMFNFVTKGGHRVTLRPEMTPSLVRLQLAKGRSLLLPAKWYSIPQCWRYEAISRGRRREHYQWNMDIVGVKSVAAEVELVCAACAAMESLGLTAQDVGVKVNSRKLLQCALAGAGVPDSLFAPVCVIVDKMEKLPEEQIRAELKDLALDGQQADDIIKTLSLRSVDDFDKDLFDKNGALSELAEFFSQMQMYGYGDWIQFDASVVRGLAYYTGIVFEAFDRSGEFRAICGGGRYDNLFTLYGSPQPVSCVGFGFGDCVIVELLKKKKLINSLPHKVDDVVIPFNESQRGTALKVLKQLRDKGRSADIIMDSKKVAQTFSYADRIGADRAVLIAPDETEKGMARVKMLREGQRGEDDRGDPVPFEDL
UniProt Q4DA54, 1-478: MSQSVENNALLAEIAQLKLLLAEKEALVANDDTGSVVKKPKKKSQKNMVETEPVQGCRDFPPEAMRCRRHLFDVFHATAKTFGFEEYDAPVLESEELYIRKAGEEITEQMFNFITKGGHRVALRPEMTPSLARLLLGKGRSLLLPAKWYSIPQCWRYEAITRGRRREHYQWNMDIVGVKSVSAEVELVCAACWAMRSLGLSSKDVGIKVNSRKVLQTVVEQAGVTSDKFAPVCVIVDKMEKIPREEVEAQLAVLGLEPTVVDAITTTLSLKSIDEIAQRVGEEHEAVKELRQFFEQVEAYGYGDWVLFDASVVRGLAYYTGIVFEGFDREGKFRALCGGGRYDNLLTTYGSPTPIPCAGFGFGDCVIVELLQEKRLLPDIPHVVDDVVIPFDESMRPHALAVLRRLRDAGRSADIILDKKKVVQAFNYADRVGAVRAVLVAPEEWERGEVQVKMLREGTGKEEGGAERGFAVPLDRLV

Data taken from ChEMBL document CHEMBL3988442, “University of Dundee, Small-Polar-MMV Screening Library” (2021).

Values are the deposited “Percent Effect”, in %.
How 0% and 100% were set is not recorded. Most values in the screen are low, and negative values occur.
The compounds are a random part of those screened.

Pks13 thioesterase: 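Polyketide synthase Pks13, Mycobacterium tuberculosis (UniProt I6X8D2). Enzyme assay of the thioesterase domain of polyketide synthase 13; the read-out is not stated. Compounds at 30 µM. Higher reads as stronger inhibition (inferred from which compounds were picked for retests). Of about 67,000 compounds tested this way, about 300 (0.46%) reached 50% or more in at least one test.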
PfKRS1: 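Lysine-tRNA ligase, Plasmodium falciparum 3D7 (UniProt Q8IDJ8). Enzyme assay of the cytosolic lysyl-tRNA synthetase in 384-well plates, read by luminescence. Compounds at 30 µM. Direction is inferred from only a few compounds that gave an IC50; most scored high, so higher reads as stronger inhibition. Size under these conditions: about 69,000 compounds, about 49 of them at 50% or above in at least one test.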
LiHisRS: 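Enzyme assay of histidyl-tRNA synthetase; the read-out is not stated. Target: Histidine-tRNA ligase, Leishmania infantum (UniProt A4I591). Concentration: 30 µM. Higher reads as stronger inhibition (inferred: compounds with an IC50 in retests scored well above the rest). The assay is labelled LdHisRS but filed under L. infantum. About 69,000 compounds were tested under these conditions; 0.6% (about 410) showed 50% or more at least once.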
TcHisRS: 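Histidine-tRNA ligase, Trypanosoma cruzi CL Brener (UniProt Q4DA54). Enzyme assay of histidyl-tRNA synthetase; the read-out is not stated. Tested at 30 µM. Direction is inferred from retests: higher values go with stronger inhibition. Size under these conditions: about 69,000 compounds, about 31 of them at 50% or above in at least one test.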

| compound | Pks13 thioesterase | PfKRS1 | LiHisRS | TcHisRS |
|---|---|---|---|---|
| `Cn1ccnc1CN1CCN(CC(O)c2ccc(F)c(F)c2)CC1` (centres unmarked) | -16.51 | -1.009 | 5.479 | 3.053 |
| `Cc1cc(C)n(CC(=O)N2Cc3cnc(C(C)(C)C)nc3C2)n1` | -12.34 | 1.259 | 16.67 | 6.329 |
| `CCSCCC(C)NC(=O)Nc1cccn(C)c1=O` (centres unmarked) | 7.703 | 5.845 | 29.46 | 10.34 |
| `Cn1cc(CNCCc2nccs2)c(-c2cccnc2)n1` | -1.555 | 3.674 | 13.7 | 4.211 |
| `CC(C)CCN1C(=O)c2ccc(C(=O)NCCc3c[nH]cn3)cc2C1=O` | -71.44 | 0.375 | 0 | 4.819 |
| `CNC(=O)CN1CCOCC2(C1)CN(C(=O)CC(C)C)CCO2` (centres unmarked) | 9.135 | 3.717 | 23.08 | 7.317 |
| `CCN(C(=O)CN1CCn2c(nnc2C2CC2)C1)C1=CCCCC1` | -4.348 | 7.201 | 25.64 | 8.434 |
| `CCN(CC)c1ccc2ccc(C(=O)NC3CC3)cn12` | -24.5 | 3.822 | 42.74 | 36.81 |
| `Cc1nn(C)c(N(C)C)c1CNCc1ccccc1Cn1cccn1` | -25.2 | -0.4776 | 7.826 | -1.127 |
| `Cc1cc(CN2CCN(C(=O)CCc3cccs3)CC2)on1` | -17.99 | -2.073 | 2.041 | 3.077 |
| `COCC1CN(C(=O)c2cccn2C)Cc2cnn(C)c21` (centres unmarked) | -33.96 | -4.293 | 7.965 | 4.301 |
| `Cc1nc(O)cc(CCNc2nccc(CCC(F)(F)F)n2)n1` | -2.434 | 7.297 | 12.28 | 3.279 |
| `CS(=O)(=O)N1CC(c2ccnc(Nc3ccccn3)n2)C1` | 8.659 | 0.06307 | 5.714 | 4.981 |
| `O=C(NCCn1ccnc1)N1CCN(Cc2ccco2)CC1` | -23.74 | -1.397 | 11.54 | 4 |
| `CCCNc1ncc(CN2C[C@H]3CC[C@@H]2CN(C2CCOCC2)C3)cn1` | -31.82 | 4.61 | 20 | 9.091 |
| `CCc1ncc2c(n1)CN(Cc1nc(-c3ccsc3)oc1C)CC2` | 2.891 | 9.096 | 37.88 | 5.303 |
| `CC(C)N1CCC(c2ccnc3c(C(=O)N4CCOCC4)ncn23)CC1` | -7.402 | 3.541 | 15.38 | 11.04 |
| `COc1cc(Oc2ccc(C(F)(F)F)cn2)ccc1CN1CCCC1` | -15.08 | 0.2284 | 27.4 | 3.279 |
| `O=c1[nH]nc(CNc2cncc(Br)c2)[nH]1` | -1.005 | -1.536 | 11.11 | -16.67 |
| `Cc1nnc(SCc2cccc(F)c2)n1CC(N)=O` | -8.289 | 5.061 | 14.81 | 3.067 |
| `O=C1CC(c2ccncc2)C2(CCN(C(=O)c3ccnnc3)CC2)N1` (centres unmarked) | -11.17 | 0.3483 | 11.76 | 3.941 |
| `CCc1nc(C2CCCN(C(=O)C(C)(C)NS(C)(=O)=O)C2)no1` (centres unmarked) | -13.55 | -1.504 | 6.195 | 4.956 |
| `CCCN(CCC)c1ncc(S(=O)(=O)c2ccc(C)cc2)c(N)n1` | -9.012 | 6.286 | 12.09 | 4.124 |
| `Cn1ncc2c1NC(=O)CC2c1ccccc1Cl` (centres unmarked) | -41.82 | 6.28 | 14.29 | -1.087 |
| `COc1ccc(N2CCN(C(=O)[C@H]3[C@@H]4CNC[C@@H]43)CC2(C)C)cc1` | -17.28 | -6.972 | -4.286 | 3.191 |
| `CSCC[C@H](NC(C)=O)c1nc(CCc2ccccc2)n[nH]1` | -17.35 | 3.182 | 12.86 | -1.064 |
| `Cc1nnc([C@H]2C[C@H]3CN(C(=O)Cc4ccc(F)cc4)CC[C@@H]3O2)o1` | -3.619 | 3.96 | 14 | 1.031 |
| `Cc1cccc(-c2noc(CN3CC(n4cccn4)C3)n2)c1` | 9.036 | -3.334 | 12.17 | 6.322 |
| `Cc1cnc(N2CC[C@@H](N3CCOCC3)[C@@H]2Cc2ccncc2)nc1` | -18.07 | 2.494 | 14.29 | 4.902 |
| `CS(=O)(=O)CCNC(=O)NCCc1cc2ccccc2o1` | -30.18 | 1.707 | 6.806 | 8.021 |
| `Cc1nccn1-c1ccc(C(C)NCCc2ccccn2)cc1` (centres unmarked) | -15.33 | 9.91 | 22.08 | 0.4926 |
| `CSc1cc2c(cc1NC(=O)NCC(=O)N(C)C)OCCO2` | -3.675 | 3.231 | 9.091 | 2.174 |
| `COc1cccc(C2(NC(=O)CCNC(C)=O)CC2)c1` | -6.486 | 5.27 | 6.897 | 6.806 |
| `Cc1cccc(CN2C(=O)CC[C@@H]3[C@H]2CCN3C(=O)c2ccsc2)n1` | -13.56 | 0.4412 | 8.824 | 2.956 |
| `CCOCCn1c(=O)[nH]c2cc(C(=O)N(C)CCc3cn[nH]c3)ccc21` | -18.92 | -2.706 | 15.38 | -2.5 |
| `N#Cc1cc(N2CCC(CS(N)(=O)=O)CC2)nc2ccccc12` | 0.8994 | 1.968 | 12.9 | 11.11 |
| `O=C(O)C(c1ccc2c(c1)OCCO2)N1CCC(N2CCOCC2)CC1` (centres unmarked) | -28.64 | 4.805 | 8.333 | 3.352 |
| `CCn1c(C2CCCN(Cc3ccc4ccccc4n3)C2)nn(C)c1=O` (centres unmarked) | -19.19 | 5.907 | 19.67 | -1.163 |
| `CS(=O)(=O)N[C@@H]1CN(Cc2ccc3ncccc3c2)C[C@H]1O` | 2.578 | 0.7227 | 17.45 | -0.8571 |
| `Cn1cnc(S(=O)(=O)NCCN2CCCCCC2=O)c1Cl` | -5.189 | 1.18 | -2.381 | 2.256 |
| `Cc1c(Br)cnn1CCC(=O)N(C)Cc1c(Cl)cnn1C` | 4.095 | 0.7166 | -57.3 | -19.17 |

For reference, 3 entries once more:

compound,Pks13 thioesterase,PfKRS1,LiHisRS,TcHisRS
COCC1CN(C(=O)c2cccn2C)Cc2cnn(C)c21 (centres unmarked),-33.96,-4.293,7.965,4.301
CCN(CC)c1ccc2ccc(C(=O)NC3CC3)cn12,-24.5,3.822,42.74,36.81
Cc1cc(C)n(CC(=O)N2Cc3cnc(C(C)(C)C)nc3C2)n1,-12.34,1.259,16.67,6.329